Experimental data reported in paper PMC8531303.
Results are given in words; binding and its absence hold for the method and conditions named. For some assays here: Binding seen in cells or lysates may run through a third protein. Some results given as binding are weak or reduced against the parent protein; the word gives no strength. For some assays here: Sequences can lack the tags named with a protein. Blank lines part the entries; values can stand above or below the molecule they belong to.

Protein sequences, listed by entry. Tags and fused reporters are not part of them. Lines headed by an entry give the natural chain unless they say otherwise; changes in a name come on top. Residues count along the entry.
UniProt O00206: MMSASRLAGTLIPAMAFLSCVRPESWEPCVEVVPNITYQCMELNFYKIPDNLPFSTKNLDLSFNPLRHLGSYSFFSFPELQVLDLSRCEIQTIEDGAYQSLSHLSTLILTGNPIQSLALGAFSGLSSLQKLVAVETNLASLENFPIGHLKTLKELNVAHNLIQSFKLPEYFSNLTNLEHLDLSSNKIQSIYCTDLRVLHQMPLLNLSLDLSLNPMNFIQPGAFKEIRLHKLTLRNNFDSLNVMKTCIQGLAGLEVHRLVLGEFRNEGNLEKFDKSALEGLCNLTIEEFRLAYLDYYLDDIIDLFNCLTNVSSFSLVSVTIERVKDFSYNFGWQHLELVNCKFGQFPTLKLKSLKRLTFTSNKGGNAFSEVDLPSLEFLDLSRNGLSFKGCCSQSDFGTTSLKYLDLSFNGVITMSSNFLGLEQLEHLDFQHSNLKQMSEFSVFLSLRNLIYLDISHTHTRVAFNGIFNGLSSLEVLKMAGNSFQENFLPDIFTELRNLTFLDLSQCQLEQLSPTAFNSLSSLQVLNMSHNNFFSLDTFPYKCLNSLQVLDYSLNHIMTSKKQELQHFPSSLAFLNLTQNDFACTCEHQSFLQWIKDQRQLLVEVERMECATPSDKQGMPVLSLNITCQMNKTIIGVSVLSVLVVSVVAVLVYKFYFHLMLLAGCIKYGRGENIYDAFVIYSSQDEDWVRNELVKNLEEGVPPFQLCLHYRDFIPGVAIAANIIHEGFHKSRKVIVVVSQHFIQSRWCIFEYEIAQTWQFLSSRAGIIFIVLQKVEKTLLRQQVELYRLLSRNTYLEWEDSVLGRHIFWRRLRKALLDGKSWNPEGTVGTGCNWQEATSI
GST-TLR4-4 (674-839 aa): residues 674-839 of O00206
UniProt Q9QUK6, residues 26-835: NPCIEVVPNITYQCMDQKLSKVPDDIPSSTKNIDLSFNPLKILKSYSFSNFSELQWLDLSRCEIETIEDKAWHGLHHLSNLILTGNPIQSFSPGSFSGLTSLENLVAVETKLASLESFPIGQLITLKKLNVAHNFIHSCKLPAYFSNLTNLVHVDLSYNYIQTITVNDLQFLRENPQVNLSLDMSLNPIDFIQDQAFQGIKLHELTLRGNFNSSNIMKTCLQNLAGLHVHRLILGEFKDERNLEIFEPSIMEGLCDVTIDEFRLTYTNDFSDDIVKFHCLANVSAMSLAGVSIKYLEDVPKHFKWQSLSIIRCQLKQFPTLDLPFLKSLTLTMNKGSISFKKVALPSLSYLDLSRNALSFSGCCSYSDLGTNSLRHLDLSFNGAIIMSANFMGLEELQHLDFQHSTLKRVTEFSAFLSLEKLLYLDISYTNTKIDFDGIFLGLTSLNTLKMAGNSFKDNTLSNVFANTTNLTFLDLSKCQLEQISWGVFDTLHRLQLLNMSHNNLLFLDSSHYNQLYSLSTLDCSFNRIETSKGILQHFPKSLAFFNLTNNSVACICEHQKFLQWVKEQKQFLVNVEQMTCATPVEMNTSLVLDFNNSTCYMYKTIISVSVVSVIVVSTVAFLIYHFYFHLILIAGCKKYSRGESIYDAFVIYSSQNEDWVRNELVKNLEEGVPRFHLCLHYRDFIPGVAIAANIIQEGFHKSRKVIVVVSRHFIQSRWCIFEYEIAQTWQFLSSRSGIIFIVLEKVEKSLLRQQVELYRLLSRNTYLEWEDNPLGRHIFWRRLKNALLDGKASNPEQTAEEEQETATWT

Assays:
[1] = target: T1, 3×FLAG-NOC4L (human NOC4L in the PC2AOE-3×FLAG vector) (human) (UniProt Q9BVI4); test: co-IP; HeLa cells co-transfected with PC2AOE-3×FLAG-NOC4L and pEGFP-TLR4, 48 h; lysis in 10 mM Tris-HCl pH 7.8, 0.5% NP-40, 150 mM NaCl, 1 mM EDTA; precipitated with anti-FLAG M2 magnetic beads; blots for FLAG and GFP
T1 sequence: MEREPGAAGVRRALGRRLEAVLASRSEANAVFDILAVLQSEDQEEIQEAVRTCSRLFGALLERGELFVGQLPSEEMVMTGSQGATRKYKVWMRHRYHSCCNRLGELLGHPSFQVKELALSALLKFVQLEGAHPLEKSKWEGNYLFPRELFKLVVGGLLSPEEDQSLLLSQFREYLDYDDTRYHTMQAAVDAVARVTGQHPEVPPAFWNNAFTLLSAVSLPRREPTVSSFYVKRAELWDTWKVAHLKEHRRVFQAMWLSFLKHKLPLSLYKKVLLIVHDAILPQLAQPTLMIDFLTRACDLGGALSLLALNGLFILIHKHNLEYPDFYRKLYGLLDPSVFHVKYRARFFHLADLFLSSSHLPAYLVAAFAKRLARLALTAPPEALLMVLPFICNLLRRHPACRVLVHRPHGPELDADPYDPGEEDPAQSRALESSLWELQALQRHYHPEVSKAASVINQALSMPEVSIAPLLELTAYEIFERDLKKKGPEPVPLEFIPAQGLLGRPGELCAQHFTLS

[2] = target: T2, endogenous NOC4L of HeLa cells (human (endogenous in HeLa)) (UniProt Q9BVI4); test: co-IP; endogenous proteins in HeLa cells (Supplementary Fig. 5g)
T2 sequence: T1 sequence

[3] = target: T3, endogenous mouse Noc4l (mouse (endogenous in RAW264.7, BMDMs and PMs)) (UniProt Q8BHY2); test: proximity ligation; Duolink PLA on methanol-fixed peritoneal macrophages of Noc4l^fl/fl, Noc4l^LKO, Noc4l^LOE, WT and TLR4 mutant mice; rabbit anti-TLR4 and mouse anti-Noc4l (3L7) antibodies; signal only if closer than 40 nm
T3 sequence: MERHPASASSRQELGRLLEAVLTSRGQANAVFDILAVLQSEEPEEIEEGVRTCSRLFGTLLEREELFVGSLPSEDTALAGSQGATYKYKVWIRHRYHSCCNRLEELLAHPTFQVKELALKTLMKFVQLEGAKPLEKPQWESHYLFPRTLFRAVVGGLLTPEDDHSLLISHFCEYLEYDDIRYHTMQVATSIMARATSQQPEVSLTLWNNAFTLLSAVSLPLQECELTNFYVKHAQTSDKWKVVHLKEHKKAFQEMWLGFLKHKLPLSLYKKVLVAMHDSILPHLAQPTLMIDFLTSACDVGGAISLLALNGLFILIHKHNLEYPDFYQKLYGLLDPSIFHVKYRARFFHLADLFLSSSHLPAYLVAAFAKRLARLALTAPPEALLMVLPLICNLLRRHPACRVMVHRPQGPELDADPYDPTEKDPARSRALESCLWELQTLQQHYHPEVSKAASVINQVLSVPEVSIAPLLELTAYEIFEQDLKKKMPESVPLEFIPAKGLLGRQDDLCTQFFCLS

[4] = target: T3, endogenous mouse Noc4l (mouse (endogenous in RAW264.7, BMDMs and PMs)); test: co-IP; endogenous proteins in lysates of RAW264.7 cells (untreated or stimulated with LPS 200 ng/mL) and of BMDMs from Noc4l^fl/fl mice; precipitated with anti-NOC4L (6 R) or rIgG overnight at 4 °C, protein A/G; blots for TLR4 and Noc4l
[5] = target: GST-TLR4-4 (674-839 aa) (human) (UniProt O00206); test: pull-down; purified GST-TLR4 truncations and purified Flag-NOC4L-His incubated with Glutathione Sepharose 4B (prepared with 0.2% BSA in PBS) overnight at 4 °C, washed with PBS; NOC4L detected by Western blot with anti-Flag antibody; both purified

Molecule: endogenous TLR4 of HeLa cells (from UniProt O00206 24-839) (receptor)
- binding [2]: binds

Molecule: endogenous mouse TLR4 (from UniProt Q9QUK6 26-835) (receptor)
- binding [3]: binds
- binding [4]: binds

Continued, values first:

- binding [1]: binds
Molecule: EGFP–TLR4 (human TLR4 in pEGFP-C1) (from UniProt O00206 24-839) (receptor)

- binding [5]: binds
B1: full-length Flag-NOC4L-His (protein, UniProt Q9BVI4 1-516)
chain: T1 sequence
